{
  "source": "patent US6291449A",
  "about": "“Use of 11-phenyl-dibenzazepine compounds to treat diarrhea or scours” (Children's Medical Center Corporation, priority 1998, dated 2001)",
  "test_system": "T84 cells",
  "experiment": "Electrogenic Cl- secretion (short circuit current) in intact T84 monolayers",
  "format": "cell-based",
  "conditions": "Homo sapiens",
  "note": "pIC50: −log10 of the molar value. Like-named read-outs stand apart in the source and are kept apart here.",
  "data": [
    {"smiles": "Clc1ccccc1C(c1ccccc1)(c1ccccc1)n1ccnc1", "note": "[clotrimazole]", "values": [
      {"measurement": "pIC50", "setting": "T84, read-out: IC50, inhibition of secretory response to cAMP", "result": 5.10},
      {"measurement": "pIC50", "setting": "T84, read-out: IC50, inhibition of secretory response to carbachol", "result": 5.52},
      {"measurement": "pIC50", "setting": "T84, read-out: IC50, inhibition of secretory response to cholera toxin", "result": 5.00}
    ]}
  ]
}
